This experiment deals with T1, hexahistidyl-tagged P. falciparum thioredoxin 1 (PfTrx1) (P. falciparum) (UniProt Q7KQL8).
T1 sequence: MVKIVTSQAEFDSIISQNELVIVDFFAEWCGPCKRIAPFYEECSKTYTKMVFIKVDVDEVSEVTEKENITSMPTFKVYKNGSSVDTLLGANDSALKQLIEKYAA
Description: pull-down; both purified.

These are yes or no findings as the source states them, for the method shown. Where a sequence is shown, tags or fusion partners need not be part of it.

In the case of “GST-fused UBL domain of PfDsk2 (P. falciparum) (domain or fragment)”, the binding entry is reported as “no binding (tested: 18 μM bait, 1.8 μM GST-tagged UBL domain)”.

Turning to “GST-fused UBL domain of PfRad23 (P. falciparum) (domain or fragment)”, the binding result was “no binding (tested: 18 μM bait, 1.8 μM GST-tagged UBL domain)”.

The record behind these values is publication PMC4671066, “Characterization of the 26S proteasome network in Plasmodium falciparum” (Scientific Reports, 2015).
